In article doi:10.1101/2020.04.20.050120:
No constants are given. Whether binding was seen depends on the method and setting. Binding seen in cells or lysates may run through a third protein. Some binding calls cover weakened binding; strength is not graded here.

The chains behind the UniProt entries cited, without tags or fusion partners.
UniProt Q09472: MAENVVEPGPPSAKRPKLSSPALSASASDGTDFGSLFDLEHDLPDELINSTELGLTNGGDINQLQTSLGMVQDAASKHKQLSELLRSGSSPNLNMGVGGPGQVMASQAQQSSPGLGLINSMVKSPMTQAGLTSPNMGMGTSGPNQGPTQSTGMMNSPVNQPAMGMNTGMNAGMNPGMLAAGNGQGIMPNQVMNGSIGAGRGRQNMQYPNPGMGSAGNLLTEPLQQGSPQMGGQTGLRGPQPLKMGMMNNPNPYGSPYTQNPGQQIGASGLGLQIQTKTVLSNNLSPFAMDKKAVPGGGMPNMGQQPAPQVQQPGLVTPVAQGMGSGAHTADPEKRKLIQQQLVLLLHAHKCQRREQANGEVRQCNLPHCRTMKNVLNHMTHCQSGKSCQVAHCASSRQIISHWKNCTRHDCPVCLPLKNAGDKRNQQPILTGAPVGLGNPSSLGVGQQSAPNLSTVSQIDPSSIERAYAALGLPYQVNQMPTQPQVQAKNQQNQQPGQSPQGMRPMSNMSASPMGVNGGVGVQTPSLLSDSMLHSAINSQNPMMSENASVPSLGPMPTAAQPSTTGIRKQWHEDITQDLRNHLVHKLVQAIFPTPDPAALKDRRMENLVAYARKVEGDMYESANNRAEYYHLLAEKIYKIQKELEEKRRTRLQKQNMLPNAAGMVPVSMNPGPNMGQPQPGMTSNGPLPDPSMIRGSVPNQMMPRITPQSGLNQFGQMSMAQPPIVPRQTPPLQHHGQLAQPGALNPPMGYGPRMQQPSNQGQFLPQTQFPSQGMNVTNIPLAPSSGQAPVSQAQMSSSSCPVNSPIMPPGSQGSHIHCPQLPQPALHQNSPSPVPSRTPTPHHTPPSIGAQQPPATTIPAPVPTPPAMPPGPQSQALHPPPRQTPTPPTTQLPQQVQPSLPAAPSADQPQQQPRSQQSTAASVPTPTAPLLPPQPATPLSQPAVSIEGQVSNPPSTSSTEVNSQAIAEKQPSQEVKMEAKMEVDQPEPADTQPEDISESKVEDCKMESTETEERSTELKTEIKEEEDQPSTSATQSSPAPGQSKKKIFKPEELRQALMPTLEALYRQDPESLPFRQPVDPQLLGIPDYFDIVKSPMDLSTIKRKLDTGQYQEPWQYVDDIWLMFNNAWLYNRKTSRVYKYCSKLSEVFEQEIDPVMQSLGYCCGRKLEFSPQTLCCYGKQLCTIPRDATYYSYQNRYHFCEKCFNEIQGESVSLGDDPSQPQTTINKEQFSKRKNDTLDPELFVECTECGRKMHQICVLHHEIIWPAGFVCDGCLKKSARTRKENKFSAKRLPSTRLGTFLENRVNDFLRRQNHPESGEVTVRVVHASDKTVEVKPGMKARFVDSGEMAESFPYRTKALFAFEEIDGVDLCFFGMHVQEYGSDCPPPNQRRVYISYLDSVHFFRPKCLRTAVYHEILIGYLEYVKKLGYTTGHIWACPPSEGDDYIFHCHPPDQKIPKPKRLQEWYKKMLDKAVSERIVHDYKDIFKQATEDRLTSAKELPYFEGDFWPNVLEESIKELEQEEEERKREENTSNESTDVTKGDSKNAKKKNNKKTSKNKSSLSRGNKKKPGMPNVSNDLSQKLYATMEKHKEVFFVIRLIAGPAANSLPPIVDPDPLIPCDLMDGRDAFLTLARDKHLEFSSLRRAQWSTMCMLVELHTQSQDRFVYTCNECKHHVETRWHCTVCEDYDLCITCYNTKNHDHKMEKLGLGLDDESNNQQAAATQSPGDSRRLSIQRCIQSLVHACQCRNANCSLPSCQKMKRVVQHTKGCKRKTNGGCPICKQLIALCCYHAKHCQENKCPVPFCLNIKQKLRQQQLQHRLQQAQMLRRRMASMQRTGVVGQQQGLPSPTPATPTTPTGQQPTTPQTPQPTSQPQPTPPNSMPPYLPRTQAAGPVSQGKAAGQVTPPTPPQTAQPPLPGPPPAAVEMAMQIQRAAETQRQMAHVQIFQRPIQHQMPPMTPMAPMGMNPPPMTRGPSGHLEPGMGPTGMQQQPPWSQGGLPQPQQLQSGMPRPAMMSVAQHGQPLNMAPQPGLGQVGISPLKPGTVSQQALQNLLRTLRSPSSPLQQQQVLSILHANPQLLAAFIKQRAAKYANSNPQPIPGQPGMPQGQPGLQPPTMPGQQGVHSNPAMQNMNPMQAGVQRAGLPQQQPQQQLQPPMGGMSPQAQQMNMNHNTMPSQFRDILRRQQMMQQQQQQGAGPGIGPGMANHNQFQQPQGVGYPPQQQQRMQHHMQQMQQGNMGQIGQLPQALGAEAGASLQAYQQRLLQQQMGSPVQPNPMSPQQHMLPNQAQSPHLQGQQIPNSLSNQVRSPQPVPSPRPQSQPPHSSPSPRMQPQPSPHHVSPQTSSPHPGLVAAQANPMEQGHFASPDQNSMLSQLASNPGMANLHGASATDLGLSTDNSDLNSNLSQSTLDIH
UniProt P08047: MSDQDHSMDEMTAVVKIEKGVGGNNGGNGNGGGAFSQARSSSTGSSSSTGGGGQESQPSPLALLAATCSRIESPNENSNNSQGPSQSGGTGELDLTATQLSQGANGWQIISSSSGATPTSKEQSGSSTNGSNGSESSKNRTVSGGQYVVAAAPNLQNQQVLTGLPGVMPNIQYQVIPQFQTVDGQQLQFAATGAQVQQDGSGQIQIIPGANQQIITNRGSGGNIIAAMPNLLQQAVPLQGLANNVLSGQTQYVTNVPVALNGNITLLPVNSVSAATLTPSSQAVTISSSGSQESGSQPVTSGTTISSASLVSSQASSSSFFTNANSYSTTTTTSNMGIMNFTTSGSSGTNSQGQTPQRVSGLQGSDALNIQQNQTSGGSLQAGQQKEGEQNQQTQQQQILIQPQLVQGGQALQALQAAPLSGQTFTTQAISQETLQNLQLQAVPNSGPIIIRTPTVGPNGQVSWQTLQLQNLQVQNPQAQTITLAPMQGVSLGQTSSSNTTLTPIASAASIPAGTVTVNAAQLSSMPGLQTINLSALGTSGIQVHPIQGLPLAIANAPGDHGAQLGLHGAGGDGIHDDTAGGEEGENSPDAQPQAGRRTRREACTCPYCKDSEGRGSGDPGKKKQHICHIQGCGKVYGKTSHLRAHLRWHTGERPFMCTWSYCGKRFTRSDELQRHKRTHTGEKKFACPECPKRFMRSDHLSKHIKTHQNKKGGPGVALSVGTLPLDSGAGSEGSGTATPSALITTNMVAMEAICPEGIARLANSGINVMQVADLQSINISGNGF
UniProt Q96KQ7: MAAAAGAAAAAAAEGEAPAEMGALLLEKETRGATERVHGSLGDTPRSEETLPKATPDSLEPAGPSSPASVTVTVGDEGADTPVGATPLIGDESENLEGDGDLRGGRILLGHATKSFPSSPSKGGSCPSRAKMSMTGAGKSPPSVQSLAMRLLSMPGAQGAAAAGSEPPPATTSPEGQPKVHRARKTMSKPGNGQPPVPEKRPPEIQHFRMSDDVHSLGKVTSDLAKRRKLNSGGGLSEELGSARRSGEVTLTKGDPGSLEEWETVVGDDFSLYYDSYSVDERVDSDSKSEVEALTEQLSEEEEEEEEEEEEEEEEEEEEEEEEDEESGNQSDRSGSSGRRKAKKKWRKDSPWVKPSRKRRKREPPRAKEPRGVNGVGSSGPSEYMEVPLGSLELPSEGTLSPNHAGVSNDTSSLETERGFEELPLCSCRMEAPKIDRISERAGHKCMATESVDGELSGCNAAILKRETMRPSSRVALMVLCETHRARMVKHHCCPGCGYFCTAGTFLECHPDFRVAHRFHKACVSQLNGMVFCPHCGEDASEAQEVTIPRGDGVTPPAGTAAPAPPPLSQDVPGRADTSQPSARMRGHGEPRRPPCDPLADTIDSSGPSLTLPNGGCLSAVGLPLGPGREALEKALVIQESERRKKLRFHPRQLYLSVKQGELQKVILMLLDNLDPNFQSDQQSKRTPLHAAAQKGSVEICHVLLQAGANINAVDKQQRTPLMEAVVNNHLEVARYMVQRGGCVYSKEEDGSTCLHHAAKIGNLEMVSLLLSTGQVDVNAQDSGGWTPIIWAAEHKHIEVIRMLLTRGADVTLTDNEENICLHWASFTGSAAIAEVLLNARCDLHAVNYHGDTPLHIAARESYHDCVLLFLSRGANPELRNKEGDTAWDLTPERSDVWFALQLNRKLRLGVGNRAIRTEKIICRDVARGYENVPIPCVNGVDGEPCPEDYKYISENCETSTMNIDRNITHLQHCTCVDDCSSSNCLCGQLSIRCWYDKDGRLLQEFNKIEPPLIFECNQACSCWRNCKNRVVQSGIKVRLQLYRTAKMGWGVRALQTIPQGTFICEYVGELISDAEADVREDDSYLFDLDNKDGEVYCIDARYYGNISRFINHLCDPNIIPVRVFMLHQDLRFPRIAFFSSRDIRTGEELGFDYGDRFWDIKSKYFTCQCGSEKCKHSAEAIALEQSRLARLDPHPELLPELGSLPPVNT

Assays:
[1] = target: p300 (human (endogenous in ERMS cell lines)) (UniProt Q09472); assay: proximity ligation
[2] = target: Sp1 (human (endogenous in ERMS cell lines)) (UniProt P08047); assay: proximity ligation

**Q.** For “G9a (from UniProt Q96KQ7 1-1210) (enzyme)”, which binding [1] is on record?
**A.** binds

**Q.** What about the binding [2] of the same substance?
**A.** binds
